The supplement of paper PMC10849652
The list shows a part of the results.

By UniProt entry, the sequences of proteins in these tests, tags left out. Where a name states a change or a piece, a line headed by the entry shows the natural chain unless it says otherwise.
UniProt Q9NY74: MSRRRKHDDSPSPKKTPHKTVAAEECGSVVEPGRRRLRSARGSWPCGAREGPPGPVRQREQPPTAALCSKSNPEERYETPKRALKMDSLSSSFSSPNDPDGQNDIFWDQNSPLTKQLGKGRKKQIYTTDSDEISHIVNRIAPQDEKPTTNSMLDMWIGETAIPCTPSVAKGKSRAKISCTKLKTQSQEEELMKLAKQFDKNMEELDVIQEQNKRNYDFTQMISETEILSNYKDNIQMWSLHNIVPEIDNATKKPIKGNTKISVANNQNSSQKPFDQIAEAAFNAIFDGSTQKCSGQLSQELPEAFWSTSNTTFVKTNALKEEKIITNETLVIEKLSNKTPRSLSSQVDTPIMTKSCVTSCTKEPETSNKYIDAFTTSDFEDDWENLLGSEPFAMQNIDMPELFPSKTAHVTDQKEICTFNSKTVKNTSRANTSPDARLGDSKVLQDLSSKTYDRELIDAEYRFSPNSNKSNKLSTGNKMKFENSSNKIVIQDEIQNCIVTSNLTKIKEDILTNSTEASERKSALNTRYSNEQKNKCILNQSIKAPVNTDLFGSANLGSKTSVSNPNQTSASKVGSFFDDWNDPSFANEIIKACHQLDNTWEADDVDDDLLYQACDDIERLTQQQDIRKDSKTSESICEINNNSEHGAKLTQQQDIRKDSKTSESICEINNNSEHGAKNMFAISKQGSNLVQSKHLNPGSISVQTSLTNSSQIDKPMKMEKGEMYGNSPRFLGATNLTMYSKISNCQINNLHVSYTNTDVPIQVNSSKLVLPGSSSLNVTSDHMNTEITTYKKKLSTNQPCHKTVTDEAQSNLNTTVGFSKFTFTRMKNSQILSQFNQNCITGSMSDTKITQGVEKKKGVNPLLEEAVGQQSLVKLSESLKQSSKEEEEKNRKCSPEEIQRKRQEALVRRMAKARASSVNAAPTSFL
UniProt Q9BVV8: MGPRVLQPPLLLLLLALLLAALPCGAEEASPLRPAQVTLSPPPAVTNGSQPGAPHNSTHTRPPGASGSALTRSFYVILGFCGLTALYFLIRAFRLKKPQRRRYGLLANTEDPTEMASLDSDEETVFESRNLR
EXOC3L2, A0A1C7CYX0, UniProt A0A1C7CYX0, whole entry, looked up: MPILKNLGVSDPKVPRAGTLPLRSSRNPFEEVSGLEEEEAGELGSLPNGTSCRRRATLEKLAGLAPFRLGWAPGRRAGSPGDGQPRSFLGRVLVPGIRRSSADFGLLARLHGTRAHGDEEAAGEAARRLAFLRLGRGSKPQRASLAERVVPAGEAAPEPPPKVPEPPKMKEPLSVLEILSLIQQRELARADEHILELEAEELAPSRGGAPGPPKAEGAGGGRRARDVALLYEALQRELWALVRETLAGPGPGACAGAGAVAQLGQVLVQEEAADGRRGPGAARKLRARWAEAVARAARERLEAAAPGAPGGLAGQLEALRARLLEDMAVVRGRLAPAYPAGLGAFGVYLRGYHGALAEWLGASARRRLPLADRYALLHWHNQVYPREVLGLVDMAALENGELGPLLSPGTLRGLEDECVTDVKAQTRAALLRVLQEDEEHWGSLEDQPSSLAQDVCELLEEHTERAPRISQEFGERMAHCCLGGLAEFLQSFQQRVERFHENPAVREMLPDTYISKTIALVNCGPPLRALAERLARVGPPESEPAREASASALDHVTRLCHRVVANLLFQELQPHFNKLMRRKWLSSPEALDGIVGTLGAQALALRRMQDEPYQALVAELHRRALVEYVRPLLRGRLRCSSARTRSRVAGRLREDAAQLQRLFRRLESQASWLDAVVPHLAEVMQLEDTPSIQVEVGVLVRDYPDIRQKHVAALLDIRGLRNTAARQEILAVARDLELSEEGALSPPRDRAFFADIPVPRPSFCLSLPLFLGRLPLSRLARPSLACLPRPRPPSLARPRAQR
UniProt Q8WUF8: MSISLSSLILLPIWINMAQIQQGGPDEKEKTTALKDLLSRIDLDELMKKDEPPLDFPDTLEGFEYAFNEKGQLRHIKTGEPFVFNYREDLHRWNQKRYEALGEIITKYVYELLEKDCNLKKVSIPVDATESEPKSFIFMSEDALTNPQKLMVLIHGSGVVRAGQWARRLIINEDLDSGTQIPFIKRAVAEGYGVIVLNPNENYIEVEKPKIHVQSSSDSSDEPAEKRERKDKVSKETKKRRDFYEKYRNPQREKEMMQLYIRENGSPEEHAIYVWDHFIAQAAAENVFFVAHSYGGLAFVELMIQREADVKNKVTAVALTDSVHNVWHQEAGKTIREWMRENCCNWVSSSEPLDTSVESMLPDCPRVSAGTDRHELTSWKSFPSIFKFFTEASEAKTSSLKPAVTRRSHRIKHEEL
UniProt Q8IXS8: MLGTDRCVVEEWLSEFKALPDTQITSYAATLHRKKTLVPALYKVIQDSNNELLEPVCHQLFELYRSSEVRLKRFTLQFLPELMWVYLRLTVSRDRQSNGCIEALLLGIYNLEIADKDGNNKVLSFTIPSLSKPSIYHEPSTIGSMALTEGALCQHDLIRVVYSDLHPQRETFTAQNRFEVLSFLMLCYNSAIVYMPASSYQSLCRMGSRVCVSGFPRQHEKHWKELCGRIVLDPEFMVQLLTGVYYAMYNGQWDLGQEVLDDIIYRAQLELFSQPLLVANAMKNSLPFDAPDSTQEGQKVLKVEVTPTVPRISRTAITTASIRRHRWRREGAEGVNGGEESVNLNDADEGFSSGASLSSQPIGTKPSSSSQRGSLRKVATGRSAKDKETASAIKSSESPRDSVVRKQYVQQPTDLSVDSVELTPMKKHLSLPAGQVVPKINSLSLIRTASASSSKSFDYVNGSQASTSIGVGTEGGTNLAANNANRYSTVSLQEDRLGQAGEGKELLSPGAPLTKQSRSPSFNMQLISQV
UniProt Q9NVM1: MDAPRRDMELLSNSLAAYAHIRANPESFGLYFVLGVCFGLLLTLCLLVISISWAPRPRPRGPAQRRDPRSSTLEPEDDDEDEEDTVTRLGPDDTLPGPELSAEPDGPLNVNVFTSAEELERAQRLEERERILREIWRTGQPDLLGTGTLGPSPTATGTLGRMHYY
UniProt Q9NYK6: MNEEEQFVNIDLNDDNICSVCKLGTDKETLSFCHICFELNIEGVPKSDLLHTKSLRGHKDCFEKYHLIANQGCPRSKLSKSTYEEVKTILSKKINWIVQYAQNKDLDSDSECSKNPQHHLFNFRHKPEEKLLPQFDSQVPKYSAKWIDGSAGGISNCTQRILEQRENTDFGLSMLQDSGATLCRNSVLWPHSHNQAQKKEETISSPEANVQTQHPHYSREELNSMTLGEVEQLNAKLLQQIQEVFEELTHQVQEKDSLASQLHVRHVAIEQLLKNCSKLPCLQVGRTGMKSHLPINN
UniProt Q9BQ89: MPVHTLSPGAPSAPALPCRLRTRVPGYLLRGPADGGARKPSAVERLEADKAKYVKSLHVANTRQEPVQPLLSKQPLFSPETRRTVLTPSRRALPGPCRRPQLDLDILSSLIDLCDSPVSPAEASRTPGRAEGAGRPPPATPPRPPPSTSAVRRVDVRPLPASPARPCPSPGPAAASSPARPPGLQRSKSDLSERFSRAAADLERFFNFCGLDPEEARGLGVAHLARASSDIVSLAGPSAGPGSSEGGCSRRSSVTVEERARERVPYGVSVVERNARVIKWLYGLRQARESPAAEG
UniProt Q9P2D6: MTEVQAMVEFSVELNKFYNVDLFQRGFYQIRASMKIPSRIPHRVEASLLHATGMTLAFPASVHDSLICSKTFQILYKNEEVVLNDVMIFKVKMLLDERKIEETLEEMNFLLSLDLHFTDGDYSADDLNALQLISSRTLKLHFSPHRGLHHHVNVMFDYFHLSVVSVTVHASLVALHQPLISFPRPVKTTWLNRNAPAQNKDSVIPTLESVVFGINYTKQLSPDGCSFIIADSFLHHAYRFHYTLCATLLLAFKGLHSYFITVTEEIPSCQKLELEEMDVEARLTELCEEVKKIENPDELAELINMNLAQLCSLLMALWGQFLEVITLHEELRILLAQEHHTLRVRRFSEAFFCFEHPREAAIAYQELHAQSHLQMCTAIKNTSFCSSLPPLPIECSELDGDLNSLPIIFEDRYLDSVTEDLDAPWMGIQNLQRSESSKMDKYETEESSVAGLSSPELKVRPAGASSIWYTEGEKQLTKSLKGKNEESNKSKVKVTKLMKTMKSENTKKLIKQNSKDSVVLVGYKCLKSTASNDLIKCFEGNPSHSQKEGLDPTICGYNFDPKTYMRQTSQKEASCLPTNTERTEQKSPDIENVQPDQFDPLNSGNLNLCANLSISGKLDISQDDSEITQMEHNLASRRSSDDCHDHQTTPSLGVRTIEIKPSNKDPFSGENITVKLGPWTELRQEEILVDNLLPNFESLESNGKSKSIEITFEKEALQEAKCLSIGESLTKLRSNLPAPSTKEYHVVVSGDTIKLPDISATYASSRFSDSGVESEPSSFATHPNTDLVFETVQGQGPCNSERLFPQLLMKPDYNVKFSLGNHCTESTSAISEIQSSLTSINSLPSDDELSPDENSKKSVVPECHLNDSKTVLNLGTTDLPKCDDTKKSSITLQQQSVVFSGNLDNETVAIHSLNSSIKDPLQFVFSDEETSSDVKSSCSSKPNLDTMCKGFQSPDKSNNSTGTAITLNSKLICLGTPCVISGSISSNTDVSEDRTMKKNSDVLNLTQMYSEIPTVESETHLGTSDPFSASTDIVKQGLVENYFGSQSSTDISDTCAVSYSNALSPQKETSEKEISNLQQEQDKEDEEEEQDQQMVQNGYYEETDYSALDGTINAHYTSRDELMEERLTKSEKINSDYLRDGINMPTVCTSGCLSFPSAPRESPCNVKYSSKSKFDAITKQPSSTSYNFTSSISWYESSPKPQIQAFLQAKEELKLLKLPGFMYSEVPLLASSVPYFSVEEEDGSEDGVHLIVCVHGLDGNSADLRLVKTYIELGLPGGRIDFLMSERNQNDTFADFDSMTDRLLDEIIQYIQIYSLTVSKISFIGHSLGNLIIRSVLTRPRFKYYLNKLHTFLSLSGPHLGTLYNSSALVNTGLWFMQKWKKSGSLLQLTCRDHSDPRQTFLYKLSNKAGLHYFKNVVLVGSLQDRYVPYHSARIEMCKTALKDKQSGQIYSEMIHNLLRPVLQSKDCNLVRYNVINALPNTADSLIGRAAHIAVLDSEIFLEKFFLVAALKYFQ
UniProt Q5XKK7: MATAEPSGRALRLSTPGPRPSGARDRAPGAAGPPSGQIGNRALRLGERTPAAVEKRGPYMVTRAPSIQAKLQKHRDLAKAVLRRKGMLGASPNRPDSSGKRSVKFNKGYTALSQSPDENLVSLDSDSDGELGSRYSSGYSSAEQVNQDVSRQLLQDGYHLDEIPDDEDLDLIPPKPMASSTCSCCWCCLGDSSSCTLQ
UniProt Q6NZ36: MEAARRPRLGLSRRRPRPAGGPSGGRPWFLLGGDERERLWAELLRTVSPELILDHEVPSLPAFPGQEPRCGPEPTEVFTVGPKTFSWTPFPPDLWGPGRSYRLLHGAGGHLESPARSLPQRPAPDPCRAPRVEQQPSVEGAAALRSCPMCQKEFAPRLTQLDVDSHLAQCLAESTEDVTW
UniProt O94988: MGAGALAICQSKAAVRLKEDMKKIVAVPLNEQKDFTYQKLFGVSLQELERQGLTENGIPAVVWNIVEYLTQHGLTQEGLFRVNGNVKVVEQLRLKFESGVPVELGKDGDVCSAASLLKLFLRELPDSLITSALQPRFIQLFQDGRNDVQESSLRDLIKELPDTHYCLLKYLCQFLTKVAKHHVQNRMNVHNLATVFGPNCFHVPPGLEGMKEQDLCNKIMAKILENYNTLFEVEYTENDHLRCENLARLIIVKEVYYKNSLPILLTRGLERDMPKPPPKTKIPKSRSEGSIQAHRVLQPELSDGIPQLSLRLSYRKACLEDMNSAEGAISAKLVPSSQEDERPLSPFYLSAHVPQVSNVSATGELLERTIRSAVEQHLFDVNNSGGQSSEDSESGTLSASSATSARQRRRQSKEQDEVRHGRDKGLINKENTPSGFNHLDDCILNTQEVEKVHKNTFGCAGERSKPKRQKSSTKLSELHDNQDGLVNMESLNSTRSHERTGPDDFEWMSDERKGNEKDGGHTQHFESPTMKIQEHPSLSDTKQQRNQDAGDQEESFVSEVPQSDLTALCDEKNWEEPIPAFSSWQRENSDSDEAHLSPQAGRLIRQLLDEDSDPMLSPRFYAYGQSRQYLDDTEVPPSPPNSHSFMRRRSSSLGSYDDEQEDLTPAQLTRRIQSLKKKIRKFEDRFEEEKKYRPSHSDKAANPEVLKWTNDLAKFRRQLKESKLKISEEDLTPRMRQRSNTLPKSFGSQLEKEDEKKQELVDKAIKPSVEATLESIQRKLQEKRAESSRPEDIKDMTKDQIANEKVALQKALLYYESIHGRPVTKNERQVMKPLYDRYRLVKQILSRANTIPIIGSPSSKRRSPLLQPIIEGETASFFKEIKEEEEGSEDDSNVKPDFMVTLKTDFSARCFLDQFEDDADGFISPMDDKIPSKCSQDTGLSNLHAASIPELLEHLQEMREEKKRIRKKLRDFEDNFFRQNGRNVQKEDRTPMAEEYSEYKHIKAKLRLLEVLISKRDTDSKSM

compound: O=C(O)c1ccc2c(c1)nc(Nc1cccc(Cl)c1)c1ccncc12 [silmitasertib]; experiment: log2 fold change, soluble protein after heating vs DMSO (PISA); higher = thermal stabilisation; K562 lysate, 10 uM; active = over 0.2 and 3.5 SD of the protein, either way, in both replicates (recomputed)
In short: (§1)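 Dounce homogenisation of K562 pellets in PBS pH 7.4 with 1 mM MgCl2 produced a crude extract, used at 1 mg/mL protein. Exposure to 10 μM compound lasted 30 min, and aliquots were then heated for 3 min across 48°C-58°C, pooled and brought to 0.5% NP-40 at 4°C. The supernatant after 21,000xg for 90 min was quantified by TMTpro 16plex LC-MS/MS with channel sums equalised. Duplicate values are given as log-two fold change in thermal stability relative to solvent controls.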

log2 fold change, inactive:
ESRRB isoform 1 (UniProt O95718) 0.087
ERV3-1 (UniProt Q14264) -0.083
ERN1 (UniProt O75460) 0.048
ETAA1 (UniProt Q9NY74) 0.76
FAM174C (UniProt Q9BVV8) 0.154
EXOC3L2, A0A1C7CYX0 -0.061
FAM172A (UniProt Q8WUF8) -0.084
EXO5 (UniProt Q9H790) -0.06
ESCO2 (UniProt Q56NI9) -0.107
FAM219A (UniProt Q8IW50) -0.029
FAM53C (UniProt Q9NYF3) 0.113
FAM171A2 (UniProt A8MVW0) -0.042
FAM120A, A0A494C0Y9 -0.075
FAM126B (UniProt Q8IXS8) -0.064
EVA1B (UniProt Q9NVM1) -0.002
FAM171A1 (UniProt Q5VUB5) -0.01
EURL (UniProt Q9NYK6) 0.049
ESRRA (UniProt P11474) 0.063
ETV1 (UniProt P50549) 0.146
FAM110A (UniProt Q9BQ89) -0.112
EXOG (UniProt Q9Y2C4) 0.038
FAM114A1 (UniProt Q8IWE2) -0.135

compound: O=C1NC(=O)C(c2cnc3ccccn23)=C1c1cn2c3c(cc(F)cc13)CN(C(=O)N1CCCCC1)CC2; experiment: as above
In short: as §1

log2 fold change, inactive:
FAM135A (UniProt Q9P2D6) 0.036
ERV3-1 (UniProt Q14264) -0.04
ETV6 (UniProt P41212) 0.042
EXOC3L2, A0A1C7CYX0 0.007
FAM199X (UniProt Q6PEV8) 0.133
FAM178B (UniProt Q8IXR5) 0.082
EXO5 (UniProt Q9H790) 0.054
ESCO2 (UniProt Q56NI9) -0.133
FAM219A (UniProt Q8IW50) 0.128
EWSR1 (UniProt H7BY36) -0.047
FAM53C (UniProt Q9NYF3) 0.023
EVA1B (UniProt Q9NVM1) -0.041
F2R (UniProt P25116) 0.011
FAM219B (UniProt Q5XKK7) 0.224
ESRRA (UniProt P11474) 0.026
FAH isoform 2 (UniProt P16930) -0.056
FAAP20 isoform 2 (UniProt Q6NZ36) 0.14
FAM110A (UniProt Q9BQ89) -0.167
EXOC6B (UniProt Q9Y2D4) -0.012
FAM13A (UniProt O94988) 0.074
